Measured values from the supplement of paper PMC12067093, “Discovery and optimisation of a covalent ligand for TRIM25 and its application to targeted protein ubiquitination” (Chemical Science, 2025).
Some of the results follow.

Compound: CC1Cc2ccccc2N1C(=O)C1CCCN(C1)C(=O)CCl (mixture of isomers) [TRIM25 ligand 11 (diastereomer mixture)]
Experiment: probe-labelled cysteine peptide fold change vs DMSO (competition) (log2 fold change); higher = less target engagement (more negative = stronger competition)
Conditions: THP-1, incubation time: 4 h
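Also: competitive chemoproteomic profiling in live THP-1 cells with an iodoacetamide desthiobiotin (IA-DTB) probe, comparing probe-labelled peptide intensities in compound-treated cells against DMSO-treated controls.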

Target | probe-labelled cysteine peptide fold change (10 µM) | probe-labelled cysteine peptide fold change (50 µM)
DCAF13_Q9NV06_215_FNPIETFLLGSCASDR (UniProt Q9NV06) | -0.0378 | -0.155
CTPS1_P17812_299_LLETCSIALVGK (UniProt P17812) | 0.00504 | 0.0867
CTR9_Q6PD62_533_EHPNYVDCYLR (UniProt Q6PD62) | 0.0383 | 0.104
DCTN4_Q9UJW0_114_AYYLACGFCR (UniProt Q9UJW0) | 0.00527 | 0.225
CXorf38_Q8TB03_133_QGPEECDAVALLSLINSCDHFVVDRK (UniProt Q8TB03) | 0.416 | 0.18
DCAF10_Q5QP82_213_TLSEAHEDCVNNIR (UniProt Q5QP82) | 0.0726 | -0.0884
CYB5R1_Q9UHQ9_288_EHLPAPGDDVLVLLCGPPPMVQLACHPNLDK (UniProt Q9UHQ9) | -0.503 | -0.158
CTSC_P53634_448_RGTDECAIESIAVAATPIPK (UniProt P53634) | -0.0605 | -0.0793
DCAF6_Q58WW2_190_EDCKDDILINCR (UniProt Q58WW2) | -0.00753 | 0.159
DCAF8_Q5TAQ9_256_FLPNSGDSTLAMCAR (UniProt Q5TAQ9) | -0.0559 | -0.0159
CUL1_Q13616_291_CEQVLIEK (UniProt Q13616) | 0.00883 | 0.0525
DCPS_Q96C86_222_WNQQQLDDLYLIAICHR (UniProt Q96C86) | -0.0383 | 0.108
CTSB_P07858_59_LCGTFLGGPKPPQR (UniProt P07858) | 0.0374 | 0.098
DARS2_Q6PI48_590_LICLVTGSPSIRDVIAFPK (UniProt Q6PI48) | -0.393 | 0.0388
CTPS1_P17812_216_GLGLSPDLVVCR (UniProt P17812) | 0.0351 | 0.13
CUL5_Q93034_281_ETILAECQGMIK (UniProt Q93034) | 0.0517 | -0.109
CUL4A_Q13619_289_RLEEEGDRVITYLDHSTQKPLIACVEK (UniProt Q13619) | -0.396 | -0.269
DAXX_Q9UER7_131_LYVYINELCTVLK (UniProt Q9UER7) | 0.0969 | -0.159
DCLRE1C_Q96SD1_61_VYLYCSPVTK (UniProt Q96SD1) | 0.00171 | 0.113
CXorf38_Q8TB03_133_QGPEECDAVALLSLINSCDHFVVDR (UniProt Q8TB03) | -0.104 | 0.0444
CUTA_O60888_96_LAACVNLIPQITSIYEWK (UniProt O60888) | -0.315 | -0.34
CXorf38_Q8TB03_12_LNCAEYK (UniProt Q8TB03) | -0.129 | -0.036
CUL7_Q14999_1405_HSWPVASICHTLNPR (UniProt Q14999) | -0.0956 | 0.0337
DCAF6_Q58WW2_766_HTAEHLMLLEADNHVVNCLQPHPFDPILASSGIDYDIK (UniProt Q58WW2) | 0.119 | -0.141
DCAF13_Q9NV06_342_YIMCGSDEMNIR (UniProt Q9NV06) | 0.0404 | 0.207
DAG1_Q14118_713_ATSITVTGSGSCR (UniProt Q14118) | -0.0908 | -0.0621
DCAF5_Q96JK2_349_FNPHTYMICSSGVEK (UniProt Q96JK2) | 0.128 | -0.125

Looked up above.
Value of DCAF5_Q96JK2_349_FNPHTYMICSSGVEK (UniProt Q96JK2) under probe-labelled cysteine peptide fold change (10 µM): 0.128
Value of CYB5R1_Q9UHQ9_288_EHLPAPGDDVLVLLCGPPPMVQLACHPNLDK (UniProt Q9UHQ9) under probe-labelled cysteine peptide fold change (10 µM): -0.503
Value of DCAF10_Q5QP82_213_TLSEAHEDCVNNIR (UniProt Q5QP82) under probe-labelled cysteine peptide fold change (50 µM): -0.0884
Value of DCAF13_Q9NV06_215_FNPIETFLLGSCASDR (UniProt Q9NV06) under probe-labelled cysteine peptide fold change (50 µM): -0.155

The list continues.

Target | probe-labelled cysteine peptide fold change (10 µM) | probe-labelled cysteine peptide fold change (50 µM)
DCTD_P32321_60_IVGIGYNGMPNGCSDDVLPWR (UniProt P32321) | -0.11 | 0.0873
CTSL_P07711_322_NHCGIASAASYPTV (UniProt P07711) | -0.124 | -0.205
CUL4B_Q13620_730_KLQWQSTLGHCVLK (UniProt Q13620) | -0.0966 | 0.0454
CTTNBP2NL_Q9P2B4_312_GTATEPLMLMSVFCQTESFPAER (UniProt Q9P2B4) | 0.153 | -0.18
CXorf56_Q9H5V9_69_FCNTEDEETMYLR (UniProt Q9H5V9) | -0.146 | -0.104
CTSD_P07339_329_AIGAVPLIQGEYMIPCEK (UniProt P07339) | -0.137 | -0.296
DCAF5_Q96JK2_812_ASGSTLNSGSGNCPR (UniProt Q96JK2) | -0.15 | -0.222
DCAF15_Q66K64_211_AHPGDPNAQCLR (UniProt Q66K64) | 0.202 | 0.268
CTSB_P07858_105+108_EIRDQGSCGSCWAFGAVEAISDR (UniProt P07858) | 0.0411 | -0.0918
CTSZ_Q9UBR2_214_MMAEIYANGPISCGIMATER (UniProt Q9UBR2) | 0.337 | -0.319
CYFIP1_Q7L576_1124_GPLPSNGVMHVDECVEFHR (UniProt Q7L576) | 0.0955 | 0.0571
CTSZ_Q9UBR2_179_ECHAIR (UniProt Q9UBR2) | -0.116 | 0.567
CUL7_Q14999_60_RGDEGDGGSGQVDCK (UniProt Q14999) | -0.0193 | -0.166
CUL1_Q13616_355_CGEAALNDPK (UniProt Q13616) | -0.0368 | -0.0819
CYFIP1_Q7L576_519_TVCDWETGHEPFNDPALRGEK (UniProt Q7L576) | -0.00997 | 0.0425
DCTN1_Q14203_81_KYFTCDEGHGIFVR (UniProt Q14203) | -0.165 | -0.0236
CTSG_P08311_207_AAFKGDSGGPLLCNNVAHGIVSYGK (UniProt P08311) | -0.115 | -0.305
CWF19L1_Q69YN2_141_MMLCTTSQFK (UniProt Q69YN2) | 0.0593 | 0.0957
CTR9_Q6PD62_196_TNPGCPAEVR (UniProt Q6PD62) | -0.0355 | 0.0417
DBT_P11182_279_IPHFGYCDEIDLTELVK (UniProt P11182) | 0.0359 | -0.0407
CYB5R1_Q9UHQ9_278+288_EHLPAPGDDVLVLLCGPPPMVQLACHPNLDK (UniProt Q9UHQ9) | 0.121 | -0.203
CYFIP1_Q7L576_519_TVCDWETGHEPFNDPALR (UniProt Q7L576) | 0.0504 | 0.114
DCK_P27707_9_SCPSFSASSEGTR (UniProt P27707) | 0.124 | -0.0554
CUL3_Q13618_316_TMCECMSSYLR (UniProt Q13618) | -0.0178 | 0.135
DARS2_Q6PI48_152_TAELLNACK (UniProt Q6PI48) | -0.0766 | 0.0676
CYTH2_Q99418_322_KPNCFELYIPNNK (UniProt Q99418) | 0.19 | 0.21
